Source: patent US20160000866A1
Results are given in words; binding and its absence hold for the method and conditions named. In cells and extracts the contact can be indirect. Some entries that bind do so weakly or less than the wild type. Where a sequence is shown, tags or fusion partners need not be part of it.

The chains behind the UniProt entries cited, without tags or fusion partners. Where a name states a change or a piece, a line headed by the entry shows the natural chain unless it says otherwise.
UniProt Q8BPS4: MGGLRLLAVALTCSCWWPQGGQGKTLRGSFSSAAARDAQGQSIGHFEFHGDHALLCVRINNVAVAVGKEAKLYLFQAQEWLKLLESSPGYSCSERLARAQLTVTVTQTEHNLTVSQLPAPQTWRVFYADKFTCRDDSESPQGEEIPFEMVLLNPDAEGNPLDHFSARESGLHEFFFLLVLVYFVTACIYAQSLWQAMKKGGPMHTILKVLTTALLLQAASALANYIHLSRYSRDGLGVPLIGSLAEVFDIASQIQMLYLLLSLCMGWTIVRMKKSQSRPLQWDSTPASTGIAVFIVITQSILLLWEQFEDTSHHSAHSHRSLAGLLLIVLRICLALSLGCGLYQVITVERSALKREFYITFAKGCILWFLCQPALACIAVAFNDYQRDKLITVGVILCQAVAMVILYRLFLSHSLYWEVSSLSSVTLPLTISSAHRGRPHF

Experiments:
[1] = target: G protein-coupled receptor GPR180, endogenous, in crude tissue homogenates of two day old Cthrc1 null mouse pups (mouse) (UniProt Q8BPS4); assay: co-immunoprecipitation, LC-MS
[2] = target: G protein-coupled receptor GPR180, endogenous, in crude tissue homogenates of two day old Cthrc1 null mouse pups (mouse) (UniProt Q8BPS4); assay: co-immunoprecipitation from Cthrc1 null pup tissue homogenate, qTOF / linear ion trap MS
[3] = target: G protein-coupled receptor GPR180, endogenous, in crude tissue homogenates of two day old Cthrc1 null mouse pups (mouse) (UniProt Q8BPS4); assay: co-immunoprecipitation from Cthrc1 null pup tissue homogenate, LC-MS

binding [1]: binds
binding [3]: binds
B1: purified 7×His-hCthrc1 (human Cthrc1 with a 7×His tag fused to the N terminus, expressed in CHO-K1 cells) (ligand)
chain: HHHHHHHSEIPKGKQKAQLRQREVVDLYNGMCLQGPAGVPGRDGSPGANVIPGTPGIPGRDGFKGEKGECLRESFEESWTPNYKQCSWSSLNYGIDLGKIAECTFTKMRSNSALRVLFSGSLRLKCRNACCQRWYFTFNGAECSGPLPIEAIIYLDQGSPEMNSTINIHRTSSVEGLCEGIGAGLVDVAIWVGTCSDYPKGDASTGWNSVSRIIIEELPK
binding [2]: binds
